Literature values as cited in US20030139469A1, “Use of inhibitors of soluble epoxide hydrolase to inhibit vascular smooth muscle cell proliferation” (THE REGENTS OF THE UNIVERSITY OF CALIFORNIA, priority 2002, published 2003).
At least one compound was matched to its structure with a doubt left.

Test system: restenosis
Settings: four dosage regimens, almost 11,500 people; cited from earlier work

COc1ccc(/C=C/C(=O)Nc2ccccc2C(=O)O)cc1OC [tranilast]
percentage of patients with restenosis vs placebo: no difference
